{"source": "PubChem BioAssay AID1224830, NIAID – 2016", "purpose": "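Host factors that control LPS-induced TNF expression in human macrophages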 (primary screen)", "system": "human THP-1 monocytic leukaemia cells, TNF dual-luciferase reporter clone, PMA-differentiated to macrophage-like cells", "reagents": "siRNA pool against human genes, 50 nM", "time to read-out": "LPS for 4 h, given about 3 days after siRNA transfection", "conditions": "bacterial LPS (TLR4 ligand), 10 ng/ml", "measurement": "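TNF firefly reporter luminescence divided by renilla, normalised to the plate median, then turned into a robust z-score for each replicate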", "reading the numbers": "TNF reporter robust z-score: higher = stronger TNF reporter response to LPS", "call rule": "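Each well counts as active if its z-score is over 2.8 or under -1.5; controls are left without a call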", "note": "Shown is an unselected part of about 18,000 reagents. In the full data, about 2,900 (16%) were called active. 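Calls are made per well; low scores hint the gene aids the LPS response, high scores that it dampens it.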 Repeated entries: four replicate wells of each siRNA pool. No sequences are given here."}
The first 6 records, ahead of the listing:
{"Gene":"FICD","TNF reporter robust z-score":2.68,"outcome":"inactive"}
{"Gene":"FICD","TNF reporter robust z-score":0.94,"outcome":"inactive"}
{"Gene":"FICD","TNF reporter robust z-score":0.05,"outcome":"inactive"}
{"Gene":"FICD","TNF reporter robust z-score":1.76,"outcome":"inactive"}
{"Gene":"MBP","TNF reporter robust z-score":-1.12,"outcome":"inactive"}
{"Gene":"MBP","TNF reporter robust z-score":-1.26,"outcome":"inactive"}

The listing, from the first entry:
{"Gene":"FICD","TNF reporter robust z-score":2.68,"outcome":"inactive"}
{"Gene":"FICD","TNF reporter robust z-score":0.94,"outcome":"inactive"}
{"Gene":"FICD","TNF reporter robust z-score":0.05,"outcome":"inactive"}
{"Gene":"FICD","TNF reporter robust z-score":1.76,"outcome":"inactive"}
{"Gene":"MBP","TNF reporter robust z-score":-1.12,"outcome":"inactive"}
{"Gene":"MBP","TNF reporter robust z-score":-1.26,"outcome":"inactive"}
{"Gene":"MBP","TNF reporter robust z-score":-1.8,"outcome":"active"}
{"Gene":"MBP","TNF reporter robust z-score":-1.91,"outcome":"active"}
{"Gene":"SLC48A1","outcome":"inactive"}
{"Gene":"SLC48A1","TNF reporter robust z-score":-0.08,"outcome":"inactive"}
{"Gene":"SLC48A1","TNF reporter robust z-score":0.2,"outcome":"inactive"}
{"Gene":"SLC48A1","TNF reporter robust z-score":-0.03,"outcome":"inactive"}
{"Gene":"SLC48A1","TNF reporter robust z-score":0.83,"outcome":"inactive"}
{"Gene":"MAP3K15","TNF reporter robust z-score":0.17,"outcome":"inactive"}
{"Gene":"MAP3K15","TNF reporter robust z-score":0.1,"outcome":"inactive"}
{"Gene":"MAP3K15","TNF reporter robust z-score":0.31,"outcome":"inactive"}
{"Gene":"MAP3K15","TNF reporter robust z-score":1.18,"outcome":"inactive"}
{"Gene":"ALDH3A2","TNF reporter robust z-score":-1.22,"outcome":"inactive"}
{"Gene":"ALDH3A2","TNF reporter robust z-score":-0.09,"outcome":"inactive"}
{"Gene":"ALDH3A2","TNF reporter robust z-score":-1.17,"outcome":"inactive"}
{"Gene":"ALDH3A2","TNF reporter robust z-score":-1.12,"outcome":"inactive"}
{"Gene":"DPM3","TNF reporter robust z-score":-0.45,"outcome":"inactive"}
{"Gene":"DPM3","TNF reporter robust z-score":-0.27,"outcome":"inactive"}
{"Gene":"DPM3","TNF reporter robust z-score":-0.57,"outcome":"inactive"}
{"Gene":"DPM3","TNF reporter robust z-score":-0.05,"outcome":"inactive"}
{"Gene":"ZPBP","TNF reporter robust z-score":-0.35,"outcome":"inactive"}
{"Gene":"ZPBP","TNF reporter robust z-score":1.42,"outcome":"inactive"}
{"Gene":"ZPBP","TNF reporter robust z-score":-0.01,"outcome":"inactive"}
{"Gene":"ZPBP","TNF reporter robust z-score":0.63,"outcome":"inactive"}
{"Gene":"RILP","TNF reporter robust z-score":-1.08,"outcome":"inactive"}
{"Gene":"RILP","TNF reporter robust z-score":-1.21,"outcome":"inactive"}
{"Gene":"RILP","TNF reporter robust z-score":-1.3,"outcome":"inactive"}
{"Gene":"RILP","TNF reporter robust z-score":-0.64,"outcome":"inactive"}
{"Gene":"GCOM1","TNF reporter robust z-score":0.41,"outcome":"inactive"}
{"Gene":"GCOM1","TNF reporter robust z-score":-0.54,"outcome":"inactive"}
{"Gene":"GCOM1","TNF reporter robust z-score":-0.03,"outcome":"inactive"}
{"Gene":"GCOM1","TNF reporter robust z-score":-0.51,"outcome":"inactive"}
{"Gene":"TIMM17B","outcome":"inactive"}
{"Gene":"TIMM17B","TNF reporter robust z-score":-0.79,"outcome":"inactive"}
{"Gene":"TIMM17B","TNF reporter robust z-score":-0.59,"outcome":"inactive"}
{"Gene":"TIMM17B","TNF reporter robust z-score":-1.03,"outcome":"inactive"}
{"Gene":"TIMM17B","TNF reporter robust z-score":-0.9,"outcome":"inactive"}
{"Gene":"EFHD1","TNF reporter robust z-score":-0.39,"outcome":"inactive"}
{"Gene":"EFHD1","TNF reporter robust z-score":-0.68,"outcome":"inactive"}
{"Gene":"EFHD1","TNF reporter robust z-score":-0.12,"outcome":"inactive"}
{"Gene":"EFHD1","TNF reporter robust z-score":-1.16,"outcome":"inactive"}
{"Gene":"DKK1","TNF reporter robust z-score":1.12,"outcome":"inactive"}
{"Gene":"DKK1","TNF reporter robust z-score":2.3,"outcome":"inactive"}
{"Gene":"DKK1","TNF reporter robust z-score":-0.5,"outcome":"inactive"}
{"Gene":"DKK1","TNF reporter robust z-score":-0.87,"outcome":"inactive"}
